# The supplement of paper PMC4635364
# Where a name gives a salt, the structure may show the parent alone. The list shows a part of the results. Repeats in this data set agree poorly, so a single value says little.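 ReNCell VM, a human fetal ventral-midbrain neural progenitor line, was differentiated without mitogens. Blinded raters scored images stained for doublecortin (early neurons) or tyrosine hydroxylase (dopaminergic neurons) against untreated wells (0 = no change). Scores were averaged across repeats and both raters, and compounds averaging 2 or more were selected as hits for retesting.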
# Legend:
# [1] = system: ReNCell VM; assay: neuronal differentiation score (DCX+ cell fraction vs untreated, manual image score) (score (-3 to 3)); higher = more neuronal differentiation; settings: 2 uM, 2 weeks
# [2] = system: ReNCell VM; assay: dopaminergic neuron differentiation score (TH+ cell fraction vs untreated, manual image score) (score (0 to 3)); higher = more TH+ dopaminergic neuron differentiation; settings: 2 uM, 4 weeks, BDNF 10 ng/ml + GDNF 10 ng/ml
structure (smiles),measurement,setting,value
OC[C@H]1O[C@@H](n2cnc3c(Nc4ccccc4)ncnc32)[C@H](O)[C@@H]1O [N6-Phenyladenosine],neuronal differentiation score,[1]; library: LOPAC,inactive: 0
same,dopaminergic neuron differentiation score,[2]; library: LOPAC,inactive: 0
CNNCc1ccc(C(=O)NC(C)C)cc1,neuronal differentiation score,[1]; library: Spectrum,inactive: 1
same,dopaminergic neuron differentiation score,[2]; library: Spectrum,inactive: 0
COc1ccc(OC)c2c(=S)c3ccccc3[nH]c12,neuronal differentiation score,[1]; library: Tocriscreen,inactive: 0
same,dopaminergic neuron differentiation score,[2]; library: Tocriscreen,inactive: 0
COc1c2ccoc2cc2oc(C)cc(=O)c12 [visnagin],neuronal differentiation score,[1]; library: Natural,inactive: 0
same,dopaminergic neuron differentiation score,[2]; library: Natural,inactive: 0
CCC1NC(=O)c2cc(S(N)(=O)=O)c(Cl)cc2N1 (centres undefined),neuronal differentiation score,[1]; library: Spectrum,inactive: 0
same,dopaminergic neuron differentiation score,[2]; library: Spectrum,inactive: 0
Nc1nnc(-c2cccc(Cl)c2Cl)c(N)n1,neuronal differentiation score,[1]; library: Spectrum,inactive: 0
same,dopaminergic neuron differentiation score,[2]; library: Spectrum,inactive: 0
CC(C)(C(=O)c1cccnc1)c1cccnc1,neuronal differentiation score,[1]; library: Spectrum,inactive: 0
same,dopaminergic neuron differentiation score,[2]; library: Spectrum,inactive: 0
CCCCC(CC)CNC(=N)NC(=N)NCCCCCCNC(=N)NC(=N)NCC(CC)CCCC (centres undefined) [Alexidine dihydrochloride],neuronal differentiation score,[1]; library: Prestwick,inactive: 0
same,dopaminergic neuron differentiation score,[2]; library: Prestwick,inactive: 0
O=c1c(-c2ccc(O)cc2)coc2cc(O[C@@H]3O[C@H](CO)[C@@H](O)[C@H](O)[C@H]3O)cc(O)c12 [Genistin],neuronal differentiation score,[1]; library: Phytochemical,inactive: 0
same,dopaminergic neuron differentiation score,[2]; library: Phytochemical,inactive: 0
N[C@H]1CCN(O)C1=O,neuronal differentiation score,[1]; library: Tocriscreen,inactive: 0
same,dopaminergic neuron differentiation score,[2]; library: Tocriscreen,inactive: 0
CCNC(=O)N1CCN(CCCC(c2ccc(F)cc2)c2ccc(F)cc2)CC1 [Amperozide hydrochloride],neuronal differentiation score,[1]; library: LOPAC,inactive: 1
same,dopaminergic neuron differentiation score,[2]; library: LOPAC,inactive: 0
COc1cc2c(cc1OC)C1CCC3=C(C(C)OC3=O)N1CC2 (centres undefined),neuronal differentiation score,[1]; library: Natural,inactive: 0
same,dopaminergic neuron differentiation score,[2]; library: Natural,inactive: 0
COc1c2ccoc2nc2c(OC)c(OCC(O)C(C)(C)O)ccc12 (centres undefined),neuronal differentiation score,[1]; library: Spectrum,inactive: 0
same,dopaminergic neuron differentiation score,[2]; library: Spectrum,inactive: 0
C[n+]1c2cc(N)ccc2cc2ccc(N)cc21,neuronal differentiation score,[1]; library: Spectrum,inactive: 0
same,dopaminergic neuron differentiation score,[2]; library: Spectrum,inactive: 0
Cc1noc(NS(=O)(=O)c2ccc(N)cc2)c1C,neuronal differentiation score,[1]; library: Spectrum,inactive: 1
same,dopaminergic neuron differentiation score,[2]; library: Spectrum,inactive: 0
C[C@H]1[C@@H](O)O[C@@H]2O[C@@]3(C)CC[C@H]4[C@H](C)CC[C@@H]1[C@@]24OO3,neuronal differentiation score,[1]; library: Spectrum,inactive: 0
same,dopaminergic neuron differentiation score,[2]; library: Spectrum,inactive: 0
Nc1ncnc2c1c(-c1ccc(Oc3ccccc3)cc1)cn2C1CCCC1,neuronal differentiation score,[1]; library: LOPAC,inactive: 0
same,dopaminergic neuron differentiation score,[2]; library: LOPAC,inactive: 0
CN1CCCCC1CCN1c2ccccc2Sc2ccc([S+](C)[O-])cc21 (centres undefined),neuronal differentiation score,[1]; library: Spectrum,inactive: 0
same,dopaminergic neuron differentiation score,[2]; library: Spectrum,inactive: 0
CC(=O)N[C@@H](CS)C(=O)O [N-Acetyl-L-Cysteine],neuronal differentiation score,[1]; library: LOPAC,inactive: 0
same,dopaminergic neuron differentiation score,[2]; library: LOPAC,inactive: 0
O=C(O)[C@@H]1[C@H]2C[C@H]3c4[nH]c5ccccc5c4CCN3C[C@@H]2CC[C@@H]1O [Yohimbinic acid monohydrate],neuronal differentiation score,[1]; library: Phytochemical,inactive: 0
same,dopaminergic neuron differentiation score,[2]; library: Phytochemical,inactive: 0
CC(C)=CC1C(C(=O)O)C1(C)C (centres undefined),neuronal differentiation score,[1]; library: Spectrum,inactive: 0
same,dopaminergic neuron differentiation score,[2]; library: Spectrum,inactive: 0
COC(=O)Nc1nc2cc(Sc3ccccc3)ccc2[nH]1,neuronal differentiation score,[1]; library: Spectrum,inactive: 0
same,dopaminergic neuron differentiation score,[2]; library: Spectrum,inactive: 0
CCN(CC)CCNC(=O)c1cc(Br)c(N)cc1OC [Bromopride],neuronal differentiation score,[1]; library: Prestwick,inactive: 0
same,dopaminergic neuron differentiation score,[2]; library: Prestwick,inactive: 0
C[C@@]12CCc3occc3[C@H]1CC[C@@]13C[C@@H](CC[C@H]12)[C@@](O)(CO)C3,neuronal differentiation score,[1]; library: Spectrum,inactive: 0
same,dopaminergic neuron differentiation score,[2]; library: Spectrum,inactive: 0
C[C@@H]1O[C@@H]1P(=O)(O)O,neuronal differentiation score,[1]; library: Spectrum,inactive: 0
same,dopaminergic neuron differentiation score,[2]; library: Spectrum,inactive: 0
CCn1c(=O)n(C2=C(CO)CN(CC3CCCCCCC3)CC2)c2ccccc21,neuronal differentiation score,[1]; library: Tocriscreen,inactive: 1
same,dopaminergic neuron differentiation score,[2]; library: Tocriscreen,inactive: 0
C[C@@](Cc1ccc(O)c(O)c1)(NN)C(=O)O,neuronal differentiation score,[1]; library: Spectrum,inactive: 0
same,dopaminergic neuron differentiation score,[2]; library: Spectrum,inactive: 0
O=C([O-])C(O)[C@H](O)[C@@H](O)[C@H](O)[C@H](O)CO.O=C([O-])C(O)[C@H](O)[C@@H](O)[C@H](O)[C@H](O)CO.[Ca+2] (some centres undefined),neuronal differentiation score,[1]; library: Spectrum,inactive: 0
same,dopaminergic neuron differentiation score,[2]; library: Spectrum,inactive: 0
C[C@H]1C(=O)CC[C@@H]2[C@]1(C)CC[C@H]1[C@@]2(C)CC[C@@]2(C)[C@@H]3CC(C)(C)CC[C@]3(C)CC[C@]12C,neuronal differentiation score,[1]; library: Spectrum,inactive: 0
same,dopaminergic neuron differentiation score,[2]; library: Spectrum,inactive: 0
COc1c(N2CCNC(C)C2)c(F)cc2c(=O)c(C(=O)O)cn(C3CC3)c12 (centres undefined) [Gatifloxacin],neuronal differentiation score,[1]; library: Prestwick,inactive: 0
same,dopaminergic neuron differentiation score,[2]; library: Prestwick,inactive: 0
CCOC(=O)N1CCC(=C2c3ccc(Cl)cc3CCc3cccnc32)CC1 [Loratidine],neuronal differentiation score,[1]; library: Tocriscreen,inactive: 0
same,dopaminergic neuron differentiation score,[2]; library: Tocriscreen,inactive: 0
CC(C)C1=CC2=CC[C@@H]3[C@](C)(CCC[C@@]3(C)C(=O)O)[C@H]2CC1 [Abietic Acid],neuronal differentiation score,[1]; library: Phytochemical,inactive: 1
same,dopaminergic neuron differentiation score,[2]; library: Phytochemical,inactive: 0

# Exported with tabs: entries from further up.
structure (smiles)	measurement	setting	value
CC(C)(C(=O)c1cccnc1)c1cccnc1	neuronal differentiation score	[1]; library: Spectrum	inactive: 0
COc1cc2c(cc1OC)C1CCC3=C(C(C)OC3=O)N1CC2 (centres undefined)	neuronal differentiation score	[1]; library: Natural	inactive: 0
Cc1noc(NS(=O)(=O)c2ccc(N)cc2)c1C	neuronal differentiation score	[1]; library: Spectrum	inactive: 1
CCOC(=O)N1CCC(=C2c3ccc(Cl)cc3CCc3cccnc32)CC1 [Loratidine]	neuronal differentiation score	[1]; library: Tocriscreen	inactive: 0
